# Measurements: patent US20220144922A1
# B1: ADI-15560 (antibody, V domains shown)
# VH: EVQLVESGGGVVQPGRSLRLSCVTSGFIFSNYAMHWVRQAPGKGLEWVAVISFDADNEYYAESVKGRFTISRDNSKNTMYLQMNSLRAGDTALYYCARDPLGIGVKGYVDFWGQGTLVTVSS
# VL: SSELSQPPSVSVAPGETARITCGGDNFGSDGLHWYQQKPGQAPVLVIYYDSDRPSGIPERFSGSISGNTATLTISRVEAGDEADYFCQVWDSISDHLVFGGGTKVTVL
# B2: ADI-15558 (antibody, V domains shown)
# VH: QVQLVQSGGEVKKPGASVKVSCKASGYTFTTYGISWVRQAPGHGLEWLGWISPKNGNTKYAQKVQGRVTMTIDPTTSTAYMELRSLRSDDTAMYYCARDYIVAIVAALPHGMDVWGQGTLVTVSS
# VL: QSVLTQPPSLSVSPGQTASISCSGDQLGNKYVCWYQQKPGQSPVLVIYQDSRRPSGVPERFSGSNSGNTATLTVGGTQPMDEADYYCQAWDSSIRVFGGGTKVTVL
# Biological target: postfusion RSV F ectodomain, subtype B (respiratory syncytial virus subtype B)
# Assay: BLI, IgG on sensor
row,Binder,binding
1,B1,no binding (tested: BLI response <0.05 nm)
2,B2,no binding (tested: BLI response <0.05 nm)

# No constants are given. Whether binding was seen depends on the method and setting.
